Measurements reported in article PMC12512431.
Results are given in words; binding and its absence hold for the method and conditions named. Binding seen in cells or lysates may run through a third protein. Some entries that bind do so weakly or less than the wild type. Tags and fused reporters may be left off the sequences shown.

T1: Thioredoxin Interacting Protein (TXNIP), HA-tagged (UniProt Q9H3M7)
T1 sequence: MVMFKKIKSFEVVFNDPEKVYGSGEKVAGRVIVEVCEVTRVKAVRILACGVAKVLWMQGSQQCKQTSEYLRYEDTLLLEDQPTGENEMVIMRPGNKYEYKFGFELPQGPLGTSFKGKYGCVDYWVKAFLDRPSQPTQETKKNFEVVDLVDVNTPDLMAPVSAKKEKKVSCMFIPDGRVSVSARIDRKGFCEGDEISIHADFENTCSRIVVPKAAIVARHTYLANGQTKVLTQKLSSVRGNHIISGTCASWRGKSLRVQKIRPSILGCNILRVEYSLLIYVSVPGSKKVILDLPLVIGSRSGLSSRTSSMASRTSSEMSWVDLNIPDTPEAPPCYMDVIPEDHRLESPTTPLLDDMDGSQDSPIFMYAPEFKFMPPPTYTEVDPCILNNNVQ

T2: Glucose transporter 9 (GLUT9), Flag-tagged (UniProt Q9NRM0)
T2 sequence: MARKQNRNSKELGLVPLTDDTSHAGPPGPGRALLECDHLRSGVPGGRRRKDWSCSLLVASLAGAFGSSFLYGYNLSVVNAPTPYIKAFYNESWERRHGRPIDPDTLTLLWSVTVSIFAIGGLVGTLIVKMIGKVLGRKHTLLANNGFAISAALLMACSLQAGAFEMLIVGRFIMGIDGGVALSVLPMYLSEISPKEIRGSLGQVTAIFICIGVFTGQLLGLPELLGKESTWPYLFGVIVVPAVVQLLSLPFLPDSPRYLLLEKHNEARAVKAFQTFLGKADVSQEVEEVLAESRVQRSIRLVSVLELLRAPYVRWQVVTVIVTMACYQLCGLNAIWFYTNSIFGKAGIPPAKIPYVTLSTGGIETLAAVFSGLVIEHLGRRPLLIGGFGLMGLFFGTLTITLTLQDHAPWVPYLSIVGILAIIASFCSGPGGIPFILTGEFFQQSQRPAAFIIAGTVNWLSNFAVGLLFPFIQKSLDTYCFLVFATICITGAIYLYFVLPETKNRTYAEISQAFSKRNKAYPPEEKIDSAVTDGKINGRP


Assays:
[1] = molecular target: T1, Thioredoxin Interacting Protein (TXNIP), HA-tagged; assay: co-IP; lysate of transfected HEK293 / HEK 293 T cells overexpressing TXNIP-HA and GLUT9-Flag; IP with anti-HA or anti-Flag antibody (rabbit IgG as control), Protein A/G magnetic beads, 4 °C overnight, washed with IP buffer, Western blot
[2] = molecular target: T2, Glucose transporter 9 (GLUT9), Flag-tagged; assay: as above

Row | binding [1] | binding [2] | Binder
1 | binds |  | Glucose transporter 9 (GLUT9), Flag-tagged (protein, UniProt Q9NRM0 1-540) MARKQNRNSKELGLVPLTDDTSHAGPPGPGRALLECDHLRSGVPGGRRRKDWSCSLLVASLAGAFGSSFLYGYNLSVVNAPTPYIKAFYNESWERRHGRPIDPDTLTLLWSVTVSIFAIGGLVGTLIVKMIGKVLGRKHTLLANNGFAISAALLMACSLQAGAFEMLIVGRFIMGIDGGVALSVLPMYLSEISPKEIRGSLGQVTAIFICIGVFTGQLLGLPELLGKESTWPYLFGVIVVPAVVQLLSLPFLPDSPRYLLLEKHNEARAVKAFQTFLGKADVSQEVEEVLAESRVQRSIRLVSVLELLRAPYVRWQVVTVIVTMACYQLCGLNAIWFYTNSIFGKAGIPPAKIPYVTLSTGGIETLAAVFSGLVIEHLGRRPLLIGGFGLMGLFFGTLTITLTLQDHAPWVPYLSIVGILAIIASFCSGPGGIPFILTGEFFQQSQRPAAFIIAGTVNWLSNFAVGLLFPFIQKSLDTYCFLVFATICITGAIYLYFVLPETKNRTYAEISQAFSKRNKAYPPEEKIDSAVTDGKINGRP
2 |  | binds | Thioredoxin Interacting Protein (TXNIP), HA-tagged (protein, UniProt Q9H3M7 1-391) MVMFKKIKSFEVVFNDPEKVYGSGEKVAGRVIVEVCEVTRVKAVRILACGVAKVLWMQGSQQCKQTSEYLRYEDTLLLEDQPTGENEMVIMRPGNKYEYKFGFELPQGPLGTSFKGKYGCVDYWVKAFLDRPSQPTQETKKNFEVVDLVDVNTPDLMAPVSAKKEKKVSCMFIPDGRVSVSARIDRKGFCEGDEISIHADFENTCSRIVVPKAAIVARHTYLANGQTKVLTQKLSSVRGNHIISGTCASWRGKSLRVQKIRPSILGCNILRVEYSLLIYVSVPGSKKVILDLPLVIGSRSGLSSRTSSMASRTSSEMSWVDLNIPDTPEAPPCYMDVIPEDHRLESPTTPLLDDMDGSQDSPIFMYAPEFKFMPPPTYTEVDPCILNNNVQ
